Among the data in doi:10.1101/2021.03.26.437179 (bioRxiv, 2021) are binding values, retold here.

Results are given in words; binding and its absence hold for the method and conditions named. For some of these results: Binding can be weak; no strength is given. Where a sequence is shown, tags or fusion partners need not be part of it. For some of these results: Binding seen in cells or lysates may run through a third protein.

Assay [1] has as its target T1, BD-At3g44110 (Arabidopsis) (UniProt Q94AW8).
T1 sequence: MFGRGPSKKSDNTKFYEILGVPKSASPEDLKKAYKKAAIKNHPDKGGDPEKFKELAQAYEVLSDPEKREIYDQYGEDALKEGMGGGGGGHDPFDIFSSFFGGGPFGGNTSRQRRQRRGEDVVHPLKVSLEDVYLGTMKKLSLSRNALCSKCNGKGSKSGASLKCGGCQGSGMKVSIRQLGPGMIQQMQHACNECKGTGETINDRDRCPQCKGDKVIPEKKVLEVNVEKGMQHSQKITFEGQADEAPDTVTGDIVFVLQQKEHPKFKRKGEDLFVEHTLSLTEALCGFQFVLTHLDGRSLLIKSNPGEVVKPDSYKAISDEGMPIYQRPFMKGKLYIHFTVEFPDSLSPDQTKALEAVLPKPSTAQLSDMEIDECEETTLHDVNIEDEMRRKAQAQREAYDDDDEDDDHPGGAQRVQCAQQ
Put plainly: two-hybrid.

In assay [2] the target is T2, BD-PUB26 (Arabidopsis thaliana) (UniProt Q9FXA4).
T2 sequence: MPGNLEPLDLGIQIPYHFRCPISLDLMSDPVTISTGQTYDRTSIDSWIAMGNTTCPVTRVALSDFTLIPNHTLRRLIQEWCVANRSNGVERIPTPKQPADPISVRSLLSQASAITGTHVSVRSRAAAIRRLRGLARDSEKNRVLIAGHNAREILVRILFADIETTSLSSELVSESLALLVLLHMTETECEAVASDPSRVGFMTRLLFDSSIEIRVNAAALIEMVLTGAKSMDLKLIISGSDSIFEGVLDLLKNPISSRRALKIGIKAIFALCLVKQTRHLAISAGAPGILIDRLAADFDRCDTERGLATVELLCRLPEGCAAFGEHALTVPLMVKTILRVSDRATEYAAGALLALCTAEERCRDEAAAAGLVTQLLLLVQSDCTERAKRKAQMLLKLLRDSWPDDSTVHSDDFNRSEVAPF
Nature of the assay: two-hybrid.

The target of assay [3] is T3, BD-PUB25 (Arabidopsis thaliana) (UniProt Q9LT79).
T3 sequence: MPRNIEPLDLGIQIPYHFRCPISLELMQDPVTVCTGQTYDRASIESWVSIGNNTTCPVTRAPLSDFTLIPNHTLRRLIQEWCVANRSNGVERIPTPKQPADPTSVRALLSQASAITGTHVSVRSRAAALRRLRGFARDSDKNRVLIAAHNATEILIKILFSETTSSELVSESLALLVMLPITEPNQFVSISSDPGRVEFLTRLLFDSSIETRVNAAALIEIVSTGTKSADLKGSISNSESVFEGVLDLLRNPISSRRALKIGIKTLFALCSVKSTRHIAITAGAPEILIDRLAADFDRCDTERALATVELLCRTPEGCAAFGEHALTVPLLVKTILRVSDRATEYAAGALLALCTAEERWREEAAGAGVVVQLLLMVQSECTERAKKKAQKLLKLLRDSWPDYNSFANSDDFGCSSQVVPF
Nature of the assay: two-hybrid.

A further assay has as its target T4, HIS-PUB26 (Arabidopsis thaliana, UniProt Q9FXA4 1-421).
T4 sequence (looked up): T2 sequence
Nature of the assay: pull-down.

For assay [4], the target named is T5, PUB26-ccLUC (Arabidopsis thaliana) (UniProt Q9FXA4).
T5 sequence: T2 sequence
Nature of the assay: split reporter.

In assay [5] the target is T6, PUB25-ccLUC (Arabidopsis thaliana) (UniProt Q9LT79).
T6 sequence: T3 sequence
Put plainly: split reporter.

Assay [6] concerns the target T7, GST-PUB26 (Arabidopsis thaliana, UniProt Q9FXA4 1-421).
T7 sequence (looked up): T2 sequence
Put plainly: SPR. (In general: In SPR one partner is held on a chip, and binding of the other changes the refractive index at the surface.)

For assay [7], the target named is T7, GST-PUB26. Put plainly: pull-down.
In a further assay the target is T8, GST-PUB25 (Arabidopsis thaliana, UniProt Q9LT79 1-421).
T8 sequence (looked up): T3 sequence
Nature of the assay: pull-down.

Assay [8] addresses T9, PUB26-GFP (Arabidopsis thaliana) (UniProt Q9FXA4).
T9 sequence: T2 sequence
Put plainly: co-IP.

Assay [9] concerns the target T10, PUB25-GFP (Arabidopsis thaliana) (UniProt Q9LT79).
T10 sequence: T3 sequence
Put plainly: co-IP.

On to AD-VDAL (Verticillium dahliae), for which the binding entry in assay [1] is “no binding”; in [2], “binds”; in assay [3], “binds”.
For the substance GST-VDAL (Verticillium dahliae), the binding entry with HIS-PUB26 is listed as “binds”.
In the case of “VDAL (1-59) (Verticillium dahliae) (domain or fragment)”, the binding result in assay [2] is reported as “binds”; in [3], “no binding”.
Turning to “VDAL (60-297) (Verticillium dahliae) (domain or fragment)”, the binding entry in assay [2] and in [3] was “binds” each time.
As to VDAL-GZnLUC (Verticillium dahliae), the binding entry in assay [4] and in assay [5] was “binds” each time.
For VDAL-HIS (from UniProt Q6QUX8), the binding result in the assay with GST-PUB26 [6], with GST-PUB26 [7], with GST-PUB26 [7] (record 2) and with GST-PUB25 was “binds” throughout.
For the substance VDAL-MYC (Verticillium dahliae), the binding result in [8] and in [9] was “binds” each time.
